Measured data: PubChem BioAssay AID602196 (INSERM, 2012)
Shown is one part, drawn at random, of about 23,000 reagents tested. Over the whole deposit, 455 (2%) got an active call. 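Active includes both protection and sensitisation; some change values fall well beyond the stated -50 to +50 range.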 Entries without a mark were called inactive. Further read-outs or replicates are left out here. Reagent sequences are not shown. Not given: the amount of reagent.

- Aim: 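Knock-downs that protect lung cancer cells from cisplatin or sensitise them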
- System: human A549 lung cancer cells
- Knock-down reagent: siRNA pair against human genes
- Timing: 48 h transfection before cisplatin; time from cisplatin to read-out not stated
- Treatment: cisplatin at a dose killing half of control-siRNA cells; exact dose and duration not given
- Detection: 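Cisplatin cell death as a shift from the 50% death seen with control siRNA; siRNAs toxic or growth-blocking alone scored 0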
- Reading the numbers: two-siRNA summed score (-2 to +2): higher = both siRNAs protect from cisplatin killing; -2 means both sensitise
- Rule for the call: 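siRNAs harmful alone (LDH or WST-1) get 0; others get +1 for less and -1 for more cisplatin killing; genes are active when the two siRNAs give the same sign, summing to ±2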
- Calls: active = both siRNAs shift cisplatin killing the same way; inactive = no consistent shift, or siRNA harmful alone

| gene symbol | two-siRNA summed score (-2 to +2) |
| --- | --- |
| FANCE | 0 |
| SUPT5H | -1 |
| LOC439945 | 0 |
| LOC127550 | 1 |
| LOC339324 | 0 |
| LOC442440 | 1 |
| IL37 | 0 |
| LOC402480 | 0 |
| MGC34830 | 0 |
| SGSH | 0 |
| PPM1K | 0 |
| MRO | 0 |
| VOPP1 | 0 |
| STT3A | 0 |
| LOC441474 | 1 |
| LOC283343 | 0 |
| SIAH1 | 0 |
| TMEM150A | 1 |
| SLCO1A2 | 0 |
| ADCY7 | 0 |
| TMTC2 | 0 |
| VWCE | 0 |
| CST3 | 0 |
| CA8 | -1 |
| ZCCHC24 | 0 |
| KIAA1679 | 0 |
| OR5A1 | 0 |
| EIF3L | 0 |
| GPBP1 | 0 |
| ZNF71 | 0 |
| LOC283412 | 1 |
| ALKBH1 | 0 |
| TENT5C | 0 |
| PDHX | 0 |
| TAC1 | 0 |
| LRRC3B | 0 |
| ZNF497 | 1 |
| GDI2 | 0 |
| LY6G6C | 0 |
| EPPK1 | 0 |
| EME2 | 0 |
| ZFX | 1 |
| GLIPR2 | 0 |
| TGM4 | 0 |
| ELOB | 0 |
| KIAA0984 | 0 |
| LOC399832 | 0 |
| NTMT1 | -1 |
| COPS3 | 0 |
| NPTXR | 0 |
| DMRT1 | -1 |
| MUC4 | -1 |
| TGM5 | -1 |
| MRFAP1L1 | 0 |
| TTPAL | 0 |
| PRNT | 0 |
| HEATR5B | 0 |
| LOC388643 | 0 |
| LINC00319 | 0 |
| HPSE2 | 0 |
| NOD1 | 0 |
| HHAT | 0 |
| ZNF689 | 0 |
| LOC401545 | 0 |
| QPRT | 0 |
| P2RY6 | 0 |
| ADRA1A | 1 |
| CYP21A2 | 0 |
| GCLM | -1 |
| PTCD2 | 0 |
| IKBIP | 1 |
| PHC2 | 0 |
| FAM151A | 0 |
